About 17,000 (5.5%) of roughly 310,000 compounds were called active. Inconclusive results, whose numbers are uncertain, are shown with a selection of clear calls. The call rests on the fitted dose curve; in most records, active means well fitted inhibition curve with a large enough effect; inconclusive means small, poorly fitted or top-dose-only effect, or effect the other way; inactive means no such curve, though single readings can be large or run the other way. Potencies beside an inconclusive call are fits to weak or partial responses and may not hold up.
The compounds below were run against Nuclear receptor ROR-gamma (Mus musculus) (UniProt P51450) (assay: qHTS for inhibitors of ROR gamma transcriptional activity). Settings: Drosophila S2 Gal4-RORgamma UAS-luciferase reporter, 20 h; activity change, negative = inhibition: at 53.6 µM (top of the series).
In short: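 Schneider cells (Drosophila), stable Gal4 DBD–ROR gamma + UAS-luc; 1 hr cmpd preincubation; Cu2+ induction 700 uM final; 20 hr ambient; luminescence.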
Further: nearly all actives have a fitted effect of over 60% in size.
On the % scale 0 is the no-effect control and ±100 the full control effect; potency means the concentration at half of the fitted maximal effect.

Amino acid sequences for entries named in this document (tags omitted). A change or cut given only in a name is not applied to a line headed by its entry.
UniProt P51450: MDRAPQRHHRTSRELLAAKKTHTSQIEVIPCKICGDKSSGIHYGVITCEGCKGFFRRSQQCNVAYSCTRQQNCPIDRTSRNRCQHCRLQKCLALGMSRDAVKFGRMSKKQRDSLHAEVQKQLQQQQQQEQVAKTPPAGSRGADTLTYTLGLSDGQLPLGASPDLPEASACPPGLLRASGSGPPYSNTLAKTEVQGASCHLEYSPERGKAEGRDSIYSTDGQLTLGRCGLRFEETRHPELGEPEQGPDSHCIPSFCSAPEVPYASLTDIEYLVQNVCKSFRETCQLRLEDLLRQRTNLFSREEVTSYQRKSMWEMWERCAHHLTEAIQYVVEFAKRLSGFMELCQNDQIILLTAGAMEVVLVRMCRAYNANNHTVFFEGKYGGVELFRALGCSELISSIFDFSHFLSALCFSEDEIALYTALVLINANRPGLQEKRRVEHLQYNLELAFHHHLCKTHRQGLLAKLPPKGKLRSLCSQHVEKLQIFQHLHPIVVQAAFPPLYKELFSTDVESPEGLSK

Row | SMILES | Potency | activity change, negative = inhibition
1 | C(=NC1CCCCC1)=NC1CCCCC1 | inconclusive: 5.01 µM [inhibitor, full curve, poor fit] | 
2 | Cc1cc(OC(=O)CCNC(=O)OC(C)(C)C)c2c3c(c(=O)oc2c1)CCC3 | inconclusive: 35.5 µM [inhibitor, single point] | 
3 | O=c1[nH]oc2c1CCNC2 | inconclusive: 35.5 µM [inhibitor, single point] | 
4 | C[C@]12CC[C@H]3[C@@H](CCC4=CC(=O)CC[C@@]43C)[C@@H]1CC[C@@H]2C(=O)CO | inconclusive: 35.5 µM [activator, single point] | 
5 | COc1ccc(NC(=O)c2cn(CCC#N)nc2-c2cccc(Br)c2)cc1 | inactive | 
6 | COc1cc(C)cc(CN2CC=C(c3ccccc3)CC2)c1O | active: 11.2 µM | 
7 | C[C@]12O[C@H](C[C@]1(O)CO)n1c3ccccc3c3c4c(c5c6ccccc6n2c5c31)CNC4=O | inconclusive: 22.4 µM [inhibitor, partial curve, poor fit] | 
8 | COc1ccc(N2C(=O)C(Cl)=C(N3CCN(Cc4ccccc4)CC3)C2=O)cc1 | inconclusive: 2 µM [activator, partial curve, poor fit] | 
9 | O=C1Nc2ccccc2C1Cc1nc2ccccc2c(=O)n1-c1ccccc1 (stereo not given) | inactive | 
10 | CC(C)CC(NS(=O)(=O)c1ccc2c(c1)oc(=O)n2C)C(=O)N1CC=C(c2ccccc2)CC1 (stereo not given) | inconclusive: 14.1 µM [inhibitor, partial curve] | 
11 | C[N+]1(CC2COC(c3ccco3)O2)CCCCC1 (stereo not given) | inactive | 
12 | Cc1cccc(N2C(=O)/C(=C/c3ccc(N4CCN(C)CC4)o3)C(=O)NC2=S)c1C | inconclusive: 15.8 µM [activator, partial curve, poor fit] | 
13 | C[C@@H]1Cc2c(Cl)cc(C(=O)N[C@@H](Cc3ccccc3)C(=O)O)c(O)c2C(=O)O1 | inconclusive: 15.8 µM [inhibitor, single point] | 
14 | Oc1c(Cl)c(Cl)cc(Cl)c1Cl | inconclusive: 17.8 µM [activator, partial curve] | 
15 | Cc1cc(N2CCNCC2)nc2ccccc12 | inactive | 
16 | COc1ccc(C(=O)Oc2cccc3cccnc23)cc1S(=O)(=O)N1CCOCC1 | active: 2.51 µM | 
17 | CCOC(=O)C/C(C)=N/NC(=O)COc1ccccc1C | active: 14.1 µM | 
18 | CCC(=Nc1ccc2c(c1)CCC2)c1c(O)n(C2CCCCC2)c(=O)[nH]c1=O | inconclusive: 11.2 µM [inhibitor, single point] | 
19 | CN1C(=O)/C(=C/c2ccc(Cl)s2)C(=O)NC1=S | active: 11.2 µM | 
20 | CCOC(=O)C(O)(c1ccc(NC(=O)Oc2ccccc2)cc1)C(F)(F)F (stereo not given) | inactive | 
21 | Nc1nc(SCc2ccc(Cl)cc2Cl)n[nH]1 | inconclusive: 3.55 µM [activator, partial curve] | 
22 | Cc1nn(Cc2ccccc2Cl)c(C)c1C(=O)NC1CCCc2ccccc21 (stereo not given) | inconclusive: 35.5 µM [activator, single point] | 
23 | CCC1(OC(=O)CN)C(=O)OCc2c1cc1n(c2=O)Cc2cc3ccccc3nc2-1 (stereo not given) | inconclusive: 0.199 µM [inhibitor, full curve, poor fit] | 
24 | C/C(CC(=O)Nc1ccccn1)=N\NC(=O)Cc1cccc2ccccc12 | inconclusive: 3.98 µM [activator, single point] | 

Row | SMILES | Potency | activity change, negative = inhibition
25 | Nc1ccccc1Nc1ccc([N+](=O)[O-])cc1[N+](=O)[O-] | inconclusive: 20 µM [activator, single point] | 
26 | CC(=O)c1cn(Cc2ccccc2C#N)c2ccccc12 | inconclusive: 5.01 µM [inhibitor, full curve, poor fit] | 
27 | O=C1Nc2ccc(Cl)cc2C(c2ccccc2Cl)=NC1O (stereo not given) | inactive | 
28 | C=C(C)C1CCC(C)=CC1c1c(O)cc(O)cc1CCCCC (stereo not given) | inconclusive: 14.1 µM [inhibitor, partial curve] | 
29 | CCC(=Nc1ccc2c(c1)CCC2)c1c(O)n(C)c(=O)n(C)c1=O | inconclusive: 8.91 µM [inhibitor, partial curve] | 
30 | COc1ccc(CN2C(=O)NC(=O)/C(=C/c3cc(OC)c(OC)c(OC)c3)C2=O)cc1 | inactive | 
31 | CC(=O)O[C@H]1[C@H]2[C@@H](OC(=O)Cc3ccccc3)[C@@H](C)C[C@]2(OC(C)=O)C(=O)/C(C)=C/[C@@H]2[C@H](CC[C@@]13CO3)C2(C)C | inconclusive: 15.8 µM [activator, single point] | 
32 | c1cncc(C2Nc3cccc4cccc(c34)N2)c1 | inconclusive: 12.6 µM [inhibitor, single point] | 
33 | Cc1cccc(-n2c(-c3cccs3)nc3ccccc3c2=O)c1 | inactive | 
34 | CC(=O)N1CCN(c2ccc([N+](=O)[O-])cc2C=C2C(=O)NC(=O)NC2=O)CC1 | inactive | 
35 | COc1cc2c(cc1O)CC[n+]1cc3c(OC)c(OC)ccc3cc1-2 | inconclusive: 35.5 µM [activator, single point] | 
36 | Cc1sc2ncn(CC(=O)NCC(=O)N3CCC4(CC3)OCCO4)c(=O)c2c1C | inconclusive: 0.0045 µM [activator, partial curve, poor fit] | 
37 | COc1ccc(C)cc1NC(=O)c1c(C)nn(Cc2ccccc2)c1Cl | inconclusive: 20 µM [activator, single point] | 
38 | CCCCCc1cc(O)c2c(c1)OC(C)(C)[C@@H]1CCC(C(=O)O)=C[C@H]21 | inactive | 
39 | O=C1CN(O)C(c2ccccc2)=c2cc(Cl)ccc2=N1 | inconclusive: 5.01 µM [inhibitor, partial curve] | 
40 | OC(c1ccccc1)(c1ccc(Cl)cc1)C1CN2CCC1CC2 (stereo not given) | inconclusive: 10 µM [inhibitor, single point] | 
41 | N/C(=N\[N+](=O)[O-])N/N=C/c1ccc(O)cc1 | inactive | 
42 | O=C1OC(c2ccc(O)c(S(=O)(=O)O)c2)(c2ccc(O)c(S(=O)(=O)O)c2)c2c(Br)c(Br)c(Br)c(Br)c21 | inactive | 
43 | CC(=O)O[C@H]1CC[C@H]2[C@@H]3CCC4=CC(=O)CCC4=C3C=C[C@]12C | inactive | 
44 | Cc1ncc(CN2CCCC(C(=O)c3cccc(OC(C)C)c3)C2)s1 (stereo not given) | inconclusive: 10 µM [activator, partial curve] | 
45 | c1ccc(CNCCc2ccc3c(c2)OCO3)nc1 | inactive | 
46 | C/C(=N\NC(=O)c1ccccc1O)c1c(O)n(Cc2ccccc2)c(=O)[nH]c1=O | active: 15.8 µM | 
47 | C=C(C=O)C[C@@H]1C[C@H](O)C2OC3C[C@]4(C)OC5/C=C\CC6OC7C(CC=CCC6OC5CCCC4OC3CC2O1)OC1CC2OC3CC(=O)OC3C[C@@H](C)C[C@@]2(C)OC1C[C@@H]7C (stereo not given in full) | inconclusive: 1 µM [inhibitor, partial curve, poor fit] | 
48 | CC[C@@]1(O)C(=O)OCc2c1cc1n(c2=O)-c2cc3ccccc3nc2C1 | active: 0.126 µM | 

Row | SMILES | Potency | activity change, negative = inhibition
49 | O=C(COc1ccc(Cl)cc1)N(c1ccc(Cl)cc1)C1CN2CCC1CC2 (stereo not given) | inactive | 
50 | COC(=NC1CCCC1)C(O)c1c[nH]c2ccccc12 (stereo not given) | inconclusive: 5.62 µM [inhibitor, single point] | 
51 | O=Cc1cn(Cc2c(F)cccc2Cl)c2ccccc12 | inactive | 
52 | COc1ccc(-c2cc(=O)c3c(OC)c(OC)c(OC)cc3o2)cc1 | inconclusive: 10 µM [activator, partial curve] | 
53 | CC1(C)OC(c2ccccc2)=C/C(=C/C=C2C(=O)NC(=O)NC2=O)O1 | inactive | 
54 | CC(C)n1c(O)c(C=NCc2ccccc2)c(=O)[nH]c1=S | inconclusive: 17.8 µM [inhibitor, single point] | 
55 | COc1cc(OC)cc(C(=O)NC(=S)N2C[C@H]3C[C@H](C2)c2cccc(=O)n2C3)c1 | active: 11.2 µM | 
56 | COC(=O)C[C@@](O)(CCC(C)(C)O)C(=O)O[C@@H]1C(OC)=C[C@]23CCCN2CCc2cc4c(cc2[C@@H]13)OCO4 | active: 0.0891 µM | 
57 | C=CC(C)(C)c1c2c(c(O)c3c(=O)c4ccc(O)c(O)c4oc13)C=CC(C)(C)O2 | inconclusive: 3.16 µM [inhibitor, single point] | 
58 | Cc1sc2c(c1C)C(c1ccc(C(C)(C)C)cc1)=NCC(=O)N2CC(=O)Nc1nccs1 | active: 11.2 µM | 
59 | CN(C)CC1CCCCC1OC(=O)Cc1ccc(Cl)c([N+](=O)[O-])c1 (stereo not given) | inconclusive: 31.6 µM [activator, single point] | 
60 | CN1C(=O)C(=Cc2ccccc2OCc2ccc(Cl)cc2)C(=O)N(C)C1=O |  | inactive: -2.79% [at 10 µM]
61 | CCOP(=O)(OCC)C(Nc1cccc(C(F)(F)F)c1)c1ccc(Br)cc1 (stereo not given) | inconclusive: 31.6 µM [activator, single point] | 
62 | CCNCCNc1ccc([N+](=O)[O-])c2cccnc12 | active: 2.82 µM | 
63 | O=C1/C(=C\c2ccccc2)C[C@@]2(O)[C@H]3Cc4ccc(O)c5c4[C@@]2(CCN3CC2CC2)[C@@H]1O5 | active: 11.2 µM | 
64 | O=C1C=CC(=O)C(Cl)=C1 | active: 11.2 µM | 
65 | CC(=O)N1N=C(c2cccnc2)CC1c1ccccc1O (stereo not given) | inconclusive: 7.08 µM [inhibitor, partial curve] | 
66 | Cc1c(-c2cccc(Cl)c2)nc2ccccc2c1C(=O)N1CCC2(CC1)OCCO2 | inconclusive: 14.1 µM [activator, partial curve] | 
67 | CN1CCN(c2ncc3ncc(=O)n(C)c3n2)CC1 | inactive | 
68 | O=C(c1ccccc1)C1NC1c1ccccc1 (stereo not given) | inactive | 
69 | CC(=O)c1ccc(N2CCN(c3ncccn3)CC2)c([N+](=O)[O-])c1 | inconclusive: 14.1 µM [activator, partial curve] | 
70 | C#C[C@]1(O)CC[C@H]2[C@@H]3CCC4=CC(=O)CCC4=C3C=C[C@@]21CC | inactive | 

In another format: results already given.
Row	SMILES	Potency	activity change, negative = inhibition
7	C[C@]12O[C@H](C[C@]1(O)CO)n1c3ccccc3c3c4c(c5c6ccccc6n2c5c31)CNC4=O	inconclusive: 22.4 µM [inhibitor, partial curve, poor fit]	
8	COc1ccc(N2C(=O)C(Cl)=C(N3CCN(Cc4ccccc4)CC3)C2=O)cc1	inconclusive: 2 µM [activator, partial curve, poor fit]	
9	O=C1Nc2ccccc2C1Cc1nc2ccccc2c(=O)n1-c1ccccc1 (stereo not given)	inactive	
10	CC(C)CC(NS(=O)(=O)c1ccc2c(c1)oc(=O)n2C)C(=O)N1CC=C(c2ccccc2)CC1 (stereo not given)	inconclusive: 14.1 µM [inhibitor, partial curve]	
11	C[N+]1(CC2COC(c3ccco3)O2)CCCCC1 (stereo not given)	inactive	
12	Cc1cccc(N2C(=O)/C(=C/c3ccc(N4CCN(C)CC4)o3)C(=O)NC2=S)c1C	inconclusive: 15.8 µM [activator, partial curve, poor fit]	
13	C[C@@H]1Cc2c(Cl)cc(C(=O)N[C@@H](Cc3ccccc3)C(=O)O)c(O)c2C(=O)O1	inconclusive: 15.8 µM [inhibitor, single point]	
14	Oc1c(Cl)c(Cl)cc(Cl)c1Cl	inconclusive: 17.8 µM [activator, partial curve]	
15	Cc1cc(N2CCNCC2)nc2ccccc12	inactive	
16	COc1ccc(C(=O)Oc2cccc3cccnc23)cc1S(=O)(=O)N1CCOCC1	active: 2.51 µM	
17	CCOC(=O)C/C(C)=N/NC(=O)COc1ccccc1C	active: 14.1 µM	
18	CCC(=Nc1ccc2c(c1)CCC2)c1c(O)n(C2CCCCC2)c(=O)[nH]c1=O	inconclusive: 11.2 µM [inhibitor, single point]	
19	CN1C(=O)/C(=C/c2ccc(Cl)s2)C(=O)NC1=S	active: 11.2 µM	
20	CCOC(=O)C(O)(c1ccc(NC(=O)Oc2ccccc2)cc1)C(F)(F)F (stereo not given)	inactive	
21	Nc1nc(SCc2ccc(Cl)cc2Cl)n[nH]1	inconclusive: 3.55 µM [activator, partial curve]	
22	Cc1nn(Cc2ccccc2Cl)c(C)c1C(=O)NC1CCCc2ccccc21 (stereo not given)	inconclusive: 35.5 µM [activator, single point]	
23	CCC1(OC(=O)CN)C(=O)OCc2c1cc1n(c2=O)Cc2cc3ccccc3nc2-1 (stereo not given)	inconclusive: 0.199 µM [inhibitor, full curve, poor fit]	
24	C/C(CC(=O)Nc1ccccn1)=N\NC(=O)Cc1cccc2ccccc12	inconclusive: 3.98 µM [activator, single point]	
25	Nc1ccccc1Nc1ccc([N+](=O)[O-])cc1[N+](=O)[O-]	inconclusive: 20 µM [activator, single point]	
26	CC(=O)c1cn(Cc2ccccc2C#N)c2ccccc12	inconclusive: 5.01 µM [inhibitor, full curve, poor fit]	
27	O=C1Nc2ccc(Cl)cc2C(c2ccccc2Cl)=NC1O (stereo not given)	inactive	
